Results deposited as PubChem BioAssay AID686938 (Drosophila RNAi Screening Center, 2013).

- Test: 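Fly genes required for calcium entry once internal stores are emptied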 (primary screen)
- Cell system: Drosophila S2R+ cells
- Knock-down reagent: long dsRNA against Drosophila genes, about 0.25 µg dsRNA per well, roughly 10,000 cells
- Timing: 5 days of knock-down before the calcium assay
- Challenge: thapsigargin (SERCA pump blocker) to empty calcium stores; entry signal taken 4 min after adding it
- Measurement: 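Per-well fluo-4 fluorescence in two replicates, unnormalised, measured in resting cells and 4 min after store depletion by the SERCA blocker thapsigargin; ratio of the two present in few wells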
- Reading the numbers: calcium entry signal: higher = stronger calcium signal after store depletion; resting calcium signal: higher = higher resting calcium signal
- Rule for the call: 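Called when the plate z-score of the entry-to-rest ratio, mean of duplicates, falls below −3; wells with low overall dye signal (Fmax z below −2) or more than five off-targets excluded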
- Meaning of the calls: active = strongly reduced calcium entry; inactive = no strong reduction
The screen tested about 23,000 reagents; shown is a random part of those that have a named target and a result. Over the whole deposit, 75 (0.33%) were called active. 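Raw plate signals without normalisation; calls rest on plate z-scores that were not deposited; ratio present for only 364 wells.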 Names joined by + are all predicted targets of the reagent. Not given: the dose of the treatment.

predicted target | dsRNA | calcium entry signal, replicate 1 (fluorescence units) | calcium entry signal, replicate 2 (fluorescence units) | resting calcium signal, replicate 1 (fluorescence units) | resting calcium signal, replicate 2 (fluorescence units) | outcome
TpnC47D (GeneID 36195) | DRSC07564 | 2.81e7 | 3.93e7 | 1.41e7 | 1.66e7 | inactive
CG32278 + CG14963 | DRSC22203 | 3.67e7 | 5.66e7 | 1.78e7 | 3.10e7 | inactive
CG2915 (GeneID 35754) | DRSC06842 | 3.85e7 | 3.25e7 | 1.61e7 | 1.55e7 | inactive
CG9380 (GeneID 38011) | DRSC04549 | 3.17e7 | 3.12e7 | 1.67e7 | 1.44e7 | inactive
p47 (GeneID 35674) | DRSC06046 | 3.68e7 | – | 2.07e7 | – | inactive
Mtl (GeneID 43319) | DRSC16751 | 2.63e7 | 3.71e7 | 1.43e7 | 1.70e7 | inactive
Ir94f (GeneID 318632) | DRSC13621 | 2.55e7 | 3.05e7 | 1.43e7 | 1.46e7 | inactive
Teh3 (GeneID 50170) | DRSC08537 | 4.42e7 | 4.26e7 | 2.18e7 | 2.00e7 | inactive
Gclc (GeneID 53581) | DRSC18666 | 3.37e7 | 4.64e7 | 1.98e7 | 2.50e7 | inactive
CG8093 (GeneID 36686) | DRSC07078 | 3.49e7 | 3.48e7 | 1.83e7 | 1.70e7 | inactive
Rh5 (GeneID 34615) | DRSC03412 | 5.66e7 | – | 2.65e7 | – | inactive
CG15186 (GeneID 40797) | DRSC12566 | 5.43e7 | 3.87e7 | 2.48e7 | 1.85e7 | inactive
Grip (GeneID 50391) | DRSC17940 | 2.96e7 | 3.78e7 | 1.56e7 | 1.96e7 | inactive
Grip (GeneID 50391) | DRSC18395 | 3.12e7 | 3.87e7 | 1.60e7 | 1.88e7 | inactive
Cp19 (GeneID 39000) | DRSC11121 | 3.17e7 | 4.41e7 | 1.53e7 | 2.13e7 | inactive
CG43691 (GeneID 14462585) | DRSC06650 | 3.42e7 | 3.14e7 | 1.80e7 | 1.50e7 | inactive
CG43691 (GeneID 14462585) | DRSC06651 | 3.39e7 | 3.78e7 | 1.74e7 | 1.69e7 | inactive
CG13689 (GeneID 33241) | DRSC00358 | 3.28e7 | 4.28e7 | 1.51e7 | 1.79e7 | inactive
Atg10 + CG18853 + CG12822 | DRSC20757 | 4.67e7 | 4.06e7 | 2.33e7 | 2.11e7 | inactive
CG34342 (GeneID 5740152) | DRSC09756 | 2.92e7 | 4.26e7 | 1.38e7 | 1.87e7 | inactive
CG34342 (GeneID 5740152) | DRSC22515 | 4.78e7 | 3.02e7 | 2.73e7 | 1.39e7 | inactive
Fa2h (GeneID 35670) | DRSC06608 | 4.01e7 | 4.02e7 | 1.92e7 | 1.87e7 | inactive
Fa2h (GeneID 35670) | DRSC06609 | 3.95e7 | 3.91e7 | 1.83e7 | 1.73e7 | inactive
CG7135 (GeneID 32793) | DRSC20026 | 3.76e7 | 3.16e7 | 1.99e7 | 1.33e7 | inactive
Psf1 (GeneID 38136) | DRSC08638 | 2.63e7 | 4.47e7 | 1.07e7 | 1.79e7 | inactive
Drep3 (GeneID 36292) | DRSC06312 | 3.43e7 | 6.44e7 | 1.76e7 | 3.30e7 | inactive
Drep3 (GeneID 36292) | DRSC07529 | 4.70e7 | 3.60e7 | 2.56e7 | 1.81e7 | inactive
Drep3 (GeneID 36292) | DRSC22344 | 3.38e7 | 6.01e7 | 1.64e7 | 2.80e7 | inactive

Sorted by “calcium entry signal, replicate 2 (fluorescence units)” (high to low): 10 of the entries above
predicted target | dsRNA | calcium entry signal, replicate 1 (fluorescence units) | calcium entry signal, replicate 2 (fluorescence units) | resting calcium signal, replicate 1 (fluorescence units) | resting calcium signal, replicate 2 (fluorescence units) | outcome
Cp19 (GeneID 39000) | DRSC11121 | 3.17e7 | 4.41e7 | 1.53e7 | 2.13e7 | inactive
CG13689 (GeneID 33241) | DRSC00358 | 3.28e7 | 4.28e7 | 1.51e7 | 1.79e7 | inactive
CG34342 (GeneID 5740152) | DRSC09756 | 2.92e7 | 4.26e7 | 1.38e7 | 1.87e7 | inactive
Atg10 + CG18853 + CG12822 | DRSC20757 | 4.67e7 | 4.06e7 | 2.33e7 | 2.11e7 | inactive
CG15186 (GeneID 40797) | DRSC12566 | 5.43e7 | 3.87e7 | 2.48e7 | 1.85e7 | inactive
Grip (GeneID 50391) | DRSC18395 | 3.12e7 | 3.87e7 | 1.60e7 | 1.88e7 | inactive
Grip (GeneID 50391) | DRSC17940 | 2.96e7 | 3.78e7 | 1.56e7 | 1.96e7 | inactive
CG43691 (GeneID 14462585) | DRSC06651 | 3.39e7 | 3.78e7 | 1.74e7 | 1.69e7 | inactive
CG43691 (GeneID 14462585) | DRSC06650 | 3.42e7 | 3.14e7 | 1.80e7 | 1.50e7 | inactive
CG34342 (GeneID 5740152) | DRSC22515 | 4.78e7 | 3.02e7 | 2.73e7 | 1.39e7 | inactive

Further entries follow.
predicted target | dsRNA | calcium entry signal, replicate 1 (fluorescence units) | calcium entry signal, replicate 2 (fluorescence units) | resting calcium signal, replicate 1 (fluorescence units) | resting calcium signal, replicate 2 (fluorescence units) | outcome
Sap30 (GeneID 32664) | DRSC19916 | 3.73e7 | 3.02e7 | 1.79e7 | 1.38e7 | inactive
CG7465 (GeneID 38553) | DRSC08592 | 2.45e7 | 4.07e7 | 1.17e7 | 1.76e7 | inactive
CG7465 (GeneID 38553) | DRSC22320 | 3.82e7 | 5.18e7 | 1.77e7 | 2.92e7 | inactive
Mal-A2 (GeneID 35825) | DRSC07460 | 4.00e7 | 3.75e7 | 1.96e7 | 1.78e7 | inactive
TwdlC (GeneID 43245) | DRSC14749 | 3.33e7 | 4.36e7 | 1.66e7 | 1.95e7 | inactive
Frq1 (GeneID 32797) | DRSC19961 | 3.53e7 | 3.47e7 | 1.85e7 | 1.66e7 | inactive
RAF2 (GeneID 39821) | DRSC10443 | 3.45e7 | 4.59e7 | 1.61e7 | 3.22e7 | inactive
RAF2 (GeneID 39821) | DRSC10454 | 4.54e7 | 7.80e7 | 2.23e7 | 2.95e7 | inactive
CG34041 (GeneID 3885583) | DRSC22276 | 3.40e7 | 6.36e7 | 1.67e7 | 2.96e7 | inactive
Cht11 (GeneID 31630) | DRSC18270 | 2.92e7 | 3.80e7 | 1.55e7 | 1.71e7 | inactive
Ald2 (GeneID 43189) | DRSC14730 | 3.05e7 | 4.14e7 | 1.55e7 | 1.99e7 | inactive
Ald2 (GeneID 43189) | DRSC15799 | 2.45e7 | 5.55e7 | 1.57e7 | 2.68e7 | inactive
Kap3 (GeneID 32071) | DRSC19426 | 3.41e7 | 3.04e7 | 1.65e7 | 1.45e7 | inactive
Hr78 (GeneID 40378) | DRSC11866 | 2.69e7 | 3.54e7 | 1.27e7 | 2.44e7 | inactive
CG10984 (GeneID 39446) | DRSC09817 | 5.57e7 | 4.36e7 | 3.43e7 | 1.82e7 | inactive
Ubc6 (GeneID 40610) | DRSC12370 | 1.75e7 | 1.98e7 | 1.13e7 | 1.16e7 | inactive
l(2)10685 (GeneID 33293) | DRSC00665 | 4.58e7 | – | 2.25e7 | – | inactive
Sgf29 (GeneID 37429) | DRSC04076 | 4.21e7 | – | 1.98e7 | – | inactive
RhoGDI (GeneID 40179) | DRSC10919 | 3.96e7 | 4.45e7 | 1.78e7 | 2.88e7 | inactive
CG32436 (GeneID 40362) | DRSC11683 | 3.12e7 | 4.18e7 | 1.48e7 | 1.63e7 | inactive
CG32436 (GeneID 40362) | DRSC11796 | 2.87e7 | 3.73e7 | 1.33e7 | 1.66e7 | inactive
SA2 (GeneID 38167) | DRSC08385 | 3.19e7 | 4.01e7 | 1.44e7 | 1.62e7 | inactive
CG10803 (GeneID 31320) | DRSC17763 | 5.15e7 | 5.04e7 | 2.42e7 | 2.29e7 | inactive
pira (GeneID 32229) | DRSC19494 | 3.07e7 | 4.86e7 | 1.55e7 | 2.37e7 | inactive
CG17349 (GeneID 35209) | DRSC02610 | 4.85e7 | 5.34e7 | 2.48e7 | 2.33e7 | inactive
MAGE (GeneID 40860) | DRSC12504 | 4.79e7 | 4.14e7 | 2.43e7 | 1.97e7 | inactive
CG3156 (GeneID 30994) | DRSC18503 | 3.39e7 | 4.58e7 | 1.66e7 | 2.09e7 | inactive
salm (GeneID 34569) | DRSC03606 | 4.88e7 | 5.89e7 | 2.34e7 | 2.40e7 | inactive
atos (GeneID 36243) | DRSC07318 | 3.58e7 | 3.44e7 | 1.79e7 | 1.62e7 | inactive
SrpRbeta (GeneID 47283) | DRSC21668 | 4.28e7 | 3.96e7 | 2.35e7 | 1.81e7 | inactive
